Article PMC11687841
These are yes or no findings as the source states them, for the method shown. Binding seen in cells or lysates may run through a third protein. These calls come from enrichment with a bait or labelling near it, and not all partners need be listed.

By UniProt entry, the sequences of proteins in these tests, tags left out. Residues count along the entry.
UniProt O43707: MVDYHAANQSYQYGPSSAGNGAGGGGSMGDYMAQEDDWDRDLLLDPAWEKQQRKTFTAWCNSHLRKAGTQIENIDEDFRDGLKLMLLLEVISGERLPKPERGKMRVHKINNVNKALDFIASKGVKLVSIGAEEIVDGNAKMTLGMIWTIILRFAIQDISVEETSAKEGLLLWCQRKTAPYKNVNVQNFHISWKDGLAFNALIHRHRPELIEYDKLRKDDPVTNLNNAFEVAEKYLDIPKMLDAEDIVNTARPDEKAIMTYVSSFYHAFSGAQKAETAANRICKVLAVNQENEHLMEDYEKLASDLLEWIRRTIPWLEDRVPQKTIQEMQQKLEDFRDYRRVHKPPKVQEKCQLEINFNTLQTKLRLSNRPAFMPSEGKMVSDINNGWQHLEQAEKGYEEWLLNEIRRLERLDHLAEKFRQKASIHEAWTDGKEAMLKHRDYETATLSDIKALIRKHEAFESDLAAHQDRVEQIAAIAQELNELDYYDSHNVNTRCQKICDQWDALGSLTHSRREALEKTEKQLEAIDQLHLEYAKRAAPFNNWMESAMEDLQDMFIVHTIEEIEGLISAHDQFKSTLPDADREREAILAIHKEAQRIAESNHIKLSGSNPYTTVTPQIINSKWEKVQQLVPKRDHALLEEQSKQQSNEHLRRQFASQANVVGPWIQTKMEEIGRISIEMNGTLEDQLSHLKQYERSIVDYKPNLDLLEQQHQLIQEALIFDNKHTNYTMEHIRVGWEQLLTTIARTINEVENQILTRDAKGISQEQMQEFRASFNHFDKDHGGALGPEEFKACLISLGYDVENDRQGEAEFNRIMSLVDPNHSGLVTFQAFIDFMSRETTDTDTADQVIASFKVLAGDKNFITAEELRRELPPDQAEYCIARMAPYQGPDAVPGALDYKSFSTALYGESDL
UniProt Q641Y2, residues 34-463: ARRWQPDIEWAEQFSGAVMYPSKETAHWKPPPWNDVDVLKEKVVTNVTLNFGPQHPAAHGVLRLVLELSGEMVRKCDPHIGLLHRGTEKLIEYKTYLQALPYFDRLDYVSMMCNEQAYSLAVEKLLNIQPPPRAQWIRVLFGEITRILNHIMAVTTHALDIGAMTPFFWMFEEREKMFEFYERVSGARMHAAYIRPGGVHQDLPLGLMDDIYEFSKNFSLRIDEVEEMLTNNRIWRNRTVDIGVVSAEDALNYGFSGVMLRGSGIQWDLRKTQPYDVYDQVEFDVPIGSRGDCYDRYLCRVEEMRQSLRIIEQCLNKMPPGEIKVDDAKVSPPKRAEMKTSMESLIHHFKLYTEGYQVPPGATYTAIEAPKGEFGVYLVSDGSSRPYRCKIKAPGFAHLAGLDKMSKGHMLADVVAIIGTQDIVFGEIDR
UniProt P62836: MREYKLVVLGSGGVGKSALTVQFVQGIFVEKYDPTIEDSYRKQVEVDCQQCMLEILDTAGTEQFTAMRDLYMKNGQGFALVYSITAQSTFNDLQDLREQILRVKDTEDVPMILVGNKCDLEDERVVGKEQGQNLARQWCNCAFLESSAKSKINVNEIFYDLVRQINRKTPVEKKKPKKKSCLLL
UniProt Q5XIH7: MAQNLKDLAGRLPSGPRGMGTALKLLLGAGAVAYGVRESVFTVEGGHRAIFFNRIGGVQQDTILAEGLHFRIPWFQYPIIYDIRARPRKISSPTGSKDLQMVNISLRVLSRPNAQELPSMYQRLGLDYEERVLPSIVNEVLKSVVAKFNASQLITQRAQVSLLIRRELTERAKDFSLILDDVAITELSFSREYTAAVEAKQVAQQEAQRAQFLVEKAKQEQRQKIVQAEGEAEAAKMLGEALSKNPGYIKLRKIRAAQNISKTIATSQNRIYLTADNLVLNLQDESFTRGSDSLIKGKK
UniProt P45592: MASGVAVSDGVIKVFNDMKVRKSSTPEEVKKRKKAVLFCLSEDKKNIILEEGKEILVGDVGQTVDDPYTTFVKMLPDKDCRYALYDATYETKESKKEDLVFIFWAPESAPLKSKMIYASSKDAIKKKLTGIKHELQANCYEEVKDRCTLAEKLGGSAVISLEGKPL
UniProt Q07936: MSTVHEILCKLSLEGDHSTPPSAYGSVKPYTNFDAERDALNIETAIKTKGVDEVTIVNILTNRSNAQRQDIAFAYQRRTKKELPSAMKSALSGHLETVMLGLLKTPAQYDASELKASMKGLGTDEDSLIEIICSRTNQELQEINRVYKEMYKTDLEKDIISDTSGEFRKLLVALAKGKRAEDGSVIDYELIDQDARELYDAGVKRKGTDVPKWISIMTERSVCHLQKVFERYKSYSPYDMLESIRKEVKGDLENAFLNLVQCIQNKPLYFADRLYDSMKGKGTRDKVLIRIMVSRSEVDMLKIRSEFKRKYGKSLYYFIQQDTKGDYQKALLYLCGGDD

B1: N-acetyltransferase 8 (NAT8) (protein, UniProt Q9QXT3 1-222)
chain: MASFHIRQFQERDYEQVVDMFSRGMKEHIPTAFRHLLLLPRTLLLLLGVPLALVLVSGSWLLAVVCIFFLLPFLWFLAGQPWKNYVSKCLHTDMADITKSYLSDRGSGFWVAESGGQIVGTVGALPVKDPPSGRKQLQLFRLSVSSQHRGQGIAKALVRTVLQFARDQGYTDVVLVTGLLQQGAVTLYYSMGFQKTGESFMDILTWLVDVSLIHFIYPLPSS
B2: Na+/K+/2Cl- cotransporter NKCC2 (solute carrier family 12 member 1) (protein, UniProt P55016 1-1095)
chain: MSVNIPSNSVPSGASRFQVHVINEGHGSGAAMSDSTDPPHYEETSFGDEAQNRLKISFRPGNQECYENFLQTGETAKTDTTFHAYDSHTNTYYLQTFGHNTMDAVPKIEYYRNTGSVSGPKVNRPSLQEIHEQLAKNVAVAPGSADRVANGDGMPGDEQAENKEEDVTGVVKFGWVKGVLVRCMLNIWGVMLFIRLSWIVGEAGIGLGVIIIGLSVVVTTLTGISMSAICTNGVVRGGGAYYLISRSLGPEFGGSIGLIFRFANAVRVAMYVVGFAETVVDLLKESDSMMVDPTNDIRIIGSITVVILLGISVAGMEWEAKAQVILLVILLIGIANFFIGTVIPSNNEKKSRGFFNYQASIFAENFGPSFTEGEGFFSVFAIFFPAATGILAGANISGDLEDPQDAIPRGTMLAIFITTVAYIGVAICVRACVVRDATGSMNDTVVSGMNCNGSAACGLGYDFSRCQHEPCQYGLMNNFQVMSMVSGFGPLITAGIFSATLSSALASLVSAPKVFQALCKDNIFKGLQFFAKGYGKNNEPLRGYFLTFVIAMAFILIAELNVIAPIISNFFLASYALINFSCFHASYAKSPGWRPAYGIYNMWVSLFGAILCCAVMFVINWWAAVITYVIELFLYIYVTYKKPDVNWGSSTQALSYVSALDNALELTTVEDHVKNFRPQCIVLTGGPMTRPALLDITHAFTKNSGLCICCEVFVGPRKLCVKEMNSGMAKKQAWLMKNKIKAFYAAVAADCFRDGVRSLLQASGLGRMKPNTLVIGYKKNWRKAPLSELENYVGIIHDAFDFEIGVVIVRISQGFDISPVLQVQDELEKLEQERLALEAAIKDNDCEEGKGGIRGLFKKAGKLNITKPAPKKDSNISTIQSMHVGEFNQKLVEASAQFKKKQGKGTIDVWWLFDDGGLTLLIPYILTLRKKWKDCKLRIYVGGKINRIEEEKISMASLLSKFRIKFADIHIIGDINIKPNKESWKVFEEMIEPYRLHESHKDLTTAEKLKRESPWKITDAELEAVKEKSYRQVRLNELLQEHSRAANLIVLSLPVARKGSISDLLYMAWLEILTKNLPPVLLVRGNHKNVLTFYS
B3: Annexin A1 (protein, UniProt P07150 1-346)
chain: MAMVSEFLKQACYIEKQEQEYVQAVKSYKGGPGSAVSPYPSFNPSSDVAALHKAIMVKGVDEATIIDILTKRTNAQRQQIKAAYLQETGKPLDETLKKALTGHLEEVVLAMLKTPAQFDADELRAAMKGLGTDEDTLIEILTTRSNQQIREITRVYREELKRDLAKDITSDTSGDFRNALLALAKGDRCEDMSVNQDLADTDARALYEAGERRKGTDVNVFNTILTTRSYPHLRKVFQNYRKYSQHDMNKALDLELKGDIEKCLTTIVKCATSTPAFFAEKLYEAMKGAGTRHKTLIRIMVSRSEIDMNEIKVFYQKKYGIPLCQAILDETKGDYEKILVALCGGN
B4: isocitrate dehydrogenase [NAD] subunit γ 1 (IDHG1) (protein, UniProt P41565 40-393)
chain: SSQQTIPPSAKYGGRHTVTMIPGDGIGPELMLHVKSVFRHACVPVDFEEVHVSSNADEEDIRNAIMAIRRNRVALKGNIETNHDLPPSHKSRNNILRTSLDLYANVIHCKSLPGVVTRHKDIDILIVRENTEGEYSSLEHESVAGVVESLKIITKAKSLRIAEYAFKLAQESGRKKVTAVHKANIMKLGDGLFLQCCREVAARYPQITFDSMIVDNTTMQLVSRPQQFDVMVMPNLYGNIVNNVCAGLVGGPGLVAGANYGHVYAVFETATRNTGKSIANKNIANPTATLLASCMMLDHLKLHSYATSIRKAVLASMDNENMHTPDIGGQGTTSQAIQDIIRHIRIINGRAVEA

Target: GST-full-length ACTN4 (glutathione-S-transferase-fusion actinin-4) (UniProt O43707)
Assay: affinity purification with mass spectrometry; purified GST-ACTN4 or GST alone incubated with rat medullary TAL lysate (100 µg, precleared with glutathione beads) overnight at 4°C; isolated on glutathione-agarose beads; washed three times low-salt (0.01 mM NaCl) and three times high-salt (500 mM NaCl); LC-MS/MS; only the target purified

binding, binds:
NADH dehydrogenase iron-sulfur protein 2 (NDUS2) (from UniProt Q641Y2 34-463)
Ras-related protein Rap-1A (RAP1A) (from UniProt P62836 1-184)
apolipoprotein B (APOB) (from UniProt Q7TMA5 28-4743)
prohibitin-2 (PHB2) (from UniProt Q5XIH7 1-299)
cofilin-1 (CFL1) (from UniProt P45592 1-166)
Annexin A2 (ANXN2) (from UniProt Q07936 1-339)
B1
B2
B3
B4
